For at least one entry, the source does not settle the construct or the ends of the probe. Weaker means in comparison with the reference protein, sequence or condition of that experiment. Where a protein sequence is shown, tags need not be part of it.

The target in the data set is T1, XerA (Pab0255) (Pyrococcus abyssi) (UniProt Q9V1P5).
T1 sequence (looked up): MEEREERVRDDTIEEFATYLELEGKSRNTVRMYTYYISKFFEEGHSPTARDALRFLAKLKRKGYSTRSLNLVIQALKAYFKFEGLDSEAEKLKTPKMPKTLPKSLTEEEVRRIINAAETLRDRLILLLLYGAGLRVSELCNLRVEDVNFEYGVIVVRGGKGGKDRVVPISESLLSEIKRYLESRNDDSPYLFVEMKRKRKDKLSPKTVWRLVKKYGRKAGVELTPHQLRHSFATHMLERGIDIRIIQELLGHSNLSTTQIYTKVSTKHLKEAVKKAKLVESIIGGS
The experiment in a line: competition with a labelled probe. As to conditions: 20 C, 40 pmol XerA, increasing poly(dIdC)2 competitor, much lower affinity than dif; EMSA: 0.5 uM labeled DNA, 50 mM Tris pH 7.5, 30 mM NaCl, 0.5 ug poly(dIdC).poly(dIdC), 20 ul, 30 min at 20 or 65 C; native PAGE in TGE at 4 C; recombinant protein; residues 1-286; protein details: N-terminal His6 (MHHHHHH, from forward primer); label: 5'-32P on top strand. On the technique in general: A gel shift assay detects complexes by their altered migration in electrophoresis.

“GTTAACTATCTTTTCCGCCTCCGGAGCCGGAGGTCCCGTGTTG (double strand) [attP (SSV1 minimal)]”: the binding result is recorded as “binds more weakly”.
